# Measured values published in PubChem BioAssay AID1671190 (National Center for Advancing Translational Sciences (NCATS), 2021).
# Chains of the proteins cited; added tags and fusions are not shown. Lines headed by an entry give the natural chain unless they say otherwise; changes in a name come on top.
# UniProt P18054: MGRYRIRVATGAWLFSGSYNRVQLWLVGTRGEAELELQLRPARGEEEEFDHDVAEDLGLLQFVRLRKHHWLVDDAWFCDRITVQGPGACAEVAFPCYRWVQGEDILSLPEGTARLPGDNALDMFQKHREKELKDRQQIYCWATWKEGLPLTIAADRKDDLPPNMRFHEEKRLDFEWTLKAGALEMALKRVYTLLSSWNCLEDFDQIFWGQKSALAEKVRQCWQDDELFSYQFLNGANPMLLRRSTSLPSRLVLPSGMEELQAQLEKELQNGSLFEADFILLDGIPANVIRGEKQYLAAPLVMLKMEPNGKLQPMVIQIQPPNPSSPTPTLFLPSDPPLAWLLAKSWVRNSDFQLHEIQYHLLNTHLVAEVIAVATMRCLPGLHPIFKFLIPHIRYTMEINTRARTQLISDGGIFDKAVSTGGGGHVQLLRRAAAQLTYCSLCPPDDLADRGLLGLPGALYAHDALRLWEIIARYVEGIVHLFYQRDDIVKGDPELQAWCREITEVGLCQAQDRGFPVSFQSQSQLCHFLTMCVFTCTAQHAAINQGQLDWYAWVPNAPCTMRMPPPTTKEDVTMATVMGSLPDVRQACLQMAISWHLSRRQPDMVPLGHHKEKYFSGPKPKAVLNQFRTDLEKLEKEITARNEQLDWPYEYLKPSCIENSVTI
# About 6,100 (1.1%) of roughly 580,000 compounds were called active. The inconclusive results got no clear call from the source; some entries with a clear call stand among them for comparison. Calls follow the shape of the dose curve; as a rule, active = well fitted inhibition curve with a large enough effect; inconclusive = small, poorly fitted or top-dose-only effect, or another doubt; inactive = no such curve, though single readings can be large or run the other way. Potencies beside an inconclusive call are fits to weak or partial responses and may not hold up.
# Target: Polyunsaturated fatty acid lipoxygenase ALOX12 (Homo sapiens) (UniProt P18054)
# Assay: Primary qHTS assay for inhibitors of human arachidonate 12S-lipoxygenase (ALOX12): Round 2
# Details: purified 12hLO, xylenol orange hydroperoxide absorbance; activity change, negative = inhibition: at 108 µM (top of the series) unless noted
# How it was run: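 Hydroperoxide product was detected by ferrous iron/xylenol orange as the 573 to 405 nm absorbance ratio. Arachidonic acid at 40 uM (final) was turned over for 30 min at room temperature by 150 nM human 12hLO, pH 7.0 Hepes buffer, after 15 min compound preincubation.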
# % is scaled to controls: 0 for no effect and ±100 for the full control effect; potency is read from the fitted curve at half-maximal effect.
Compound,Potency,"activity change, negative = inhibition"
Cc1cc(=O)oc2cc(CN3C(=O)C(=O)c4cc(F)ccc43)ccc12,"inconclusive: 70.8 µM [inhibitor, partial curve, poor fit]",–
CC(=O)Nc1ccc(S(=O)(=O)Oc2ccc(C(=S)N3CCCCC3)cc2)cc1,"inconclusive: 56.2 µM [inhibitor, partial curve, poor fit]",–
COc1ccccc1NC(=O)CSc1oc(-c2ccccc2)nc1S(=O)(=O)c1ccc(C)cc1,"inconclusive: 89.1 µM [inhibitor, partial curve, poor fit]",–
CCOC(=O)c1cn2nc(N3CCCCC3)ccc2n1,"inconclusive: 112 µM [inhibitor, single point]",–
COc1cccc(CNC2(Cc3cc(C(C)(C)O)on3)COC2)c1,–,inactive: 12.3% [at 176 µM]
O=C(CSc1ccc(-c2ccccn2)nn1)c1ccc([N+](=O)[O-])cc1,–,inactive: -12.8%
Cc1cccc(NC(=O)C2CCCN2/C=C/C(=O)C(F)(F)F)c1 (stereo unspecified),"inconclusive: 35.5 µM [inhibitor, partial curve]",–
FC(F)(F)c1nc(SCc2ccccc2)n[nH]1,"inconclusive: 28.2 µM [inhibitor, partial curve, poor fit]",–
C=CCn1c(SCC(=O)Nc2ccc3c(c2)CCC3)nc2ccccc2c1=O,"inconclusive: 44.7 µM [inhibitor, partial curve, poor fit]",–
COc1ccc(-n2nc3ccc(N)cc3n2)cc1,"inconclusive: 50.1 µM [inhibitor, partial curve, poor fit]",–
CC(=O)N1CCC2(CC1)SCC(=O)N2c1ccc(F)cc1,–,inactive: 30.3%
CC(C)CCN1C[C@@H](NC(=O)c2cccnc2)C[C@H]1CO,"inconclusive: 15.8 µM [inhibitor, full curve]",–
CCOC(=O)c1c(C)oc2c1c(CN1CCN(CCO)CC1)c(O)c1ccccc12,"inconclusive: 2.82 µM [inhibitor, full curve, poor fit]",–
COCCn1c(C)cnc1CCNC(=O)NCc1ccc(C)cc1,–,inactive: 19.1%
O=C(Oc1ccc([N+](=O)[O-])cc1)c1ccc2ccccc2n1,"inconclusive: 1 µM [inhibitor, full curve, poor fit]",–
CCOC(=O)c1ccc(NC(=O)c2cn(-c3ccccc3)nc2-c2ccc(OC)c(OC)c2)cc1,–,inactive: -20.8%
Cc1cc2nc3n(c(=O)c2n1CC(=O)NC1CCc2ccccc21)CCCCC3 (stereo unspecified),"inconclusive: 44.7 µM [inhibitor, partial curve]",–
CC(C)C[C@H]1CNC(=S)N1C[C@H]1CCCN1C[C@H](Cc1ccccc1)N1C[C@H](Cc2ccc(O)cc2)N(CCc2ccccc2)C1=S,"inconclusive: 50.1 µM [inhibitor, partial curve, poor fit]",–
COc1ccc(NC(=O)Cc2sc(C)nc2-c2cccs2)cc1Cl,"inconclusive: 3.98 µM [inhibitor, full curve, poor fit]",–
Cc1cccc(N/N=C(/c2ccccc2)c2ccc(F)cc2)c1C,active: 5.01 µM,–
COc1cccc(-c2nn(-c3ccc(F)cc3)cc2C(=O)NCC(C(C)C)N2CCOCC2)c1 (stereo unspecified),"inconclusive: 141 µM [inhibitor, single point]",–
CC(=O)C1=C(O)C(=O)N(c2nccs2)C1c1ccccc1 (stereo unspecified),active: 8.91 µM,–

Compound,Potency,"activity change, negative = inhibition"
O=C(Nc1ccccc1)C1C2/C=C\CCCCC21 (stereo unspecified),–,inactive: -4.96%
COc1ccc(-c2cc(N3CCC(NC(=O)c4cccc(Cl)c4)C3)n[nH]2)cc1 (stereo unspecified),–,inactive: -2.18%
CCCCc1ccc(/C=C(\C#N)C(N)=S)s1,active: 39.8 µM,–
COc1ccccc1CN(C)C(=O)Cc1nn(C)c(=O)c2ccccc12,–,inactive: -0.0129%
COc1ccc(C(=O)c2c(N)c(C(=O)Nc3ccccc3C)c3ccccn23)cc1,–,inactive: -0.154%
CCC1=Nc2cc(C(=O)NCc3ccco3)ccc2Sc2ccc(Cl)cc21,"inconclusive: 50.1 µM [inhibitor, partial curve, poor fit]",–
COc1ccc2c(Sc3ccc(Cl)cc3)c(C(=O)N3CCC(C)CC3)[nH]c2c1,"inconclusive: 100 µM [inhibitor, partial curve, poor fit]",–
C=CCN=C1NC(c2ccc(F)cc2)C(C(=O)OC)=C(C)N1Cc1ccccc1C(F)(F)F (stereo unspecified),"inconclusive: 50.1 µM [inhibitor, partial curve, poor fit]",–
CC1(C)Cc2c(sc3[nH]c(=S)n(Cc4ccccc4)c(=O)c23)CO1,"inconclusive: 44.7 µM [inhibitor, partial curve, poor fit]",–
O=C(Cn1c(=O)oc2cc(S(=O)(=O)N3CCCC3)ccc21)Nc1ccc(F)cc1F,"inconclusive: 44.7 µM [inhibitor, partial curve]",–
COc1ccc(-c2noc([C@@H]3Cc4nc[nH]c4CN3C(=O)Nc3ccc(Cl)cc3)n2)cc1,–,inactive: 11.8%
COCCN1C(=O)CCC1(C)C(=O)NC(C)(C)C (stereo unspecified),"inconclusive: 112 µM [inhibitor, single point]",–
CCOc1ccccc1NC(=O)CSc1ncc(S(=O)(=O)c2ccc(C)c(C)c2)c(N)n1,–,inactive: -11.9%
COc1ccc(NC(=S)NNS(=O)(=O)c2ccc3ccccc3c2)c(OC)c1,"inconclusive: 50.1 µM [inhibitor, partial curve, poor fit]",–
COC(=O)c1cccc(NC(=O)CN2CCN(c3oc(-c4ccco4)nc3C#N)CC2)c1,"inconclusive: 79.4 µM [inhibitor, partial curve, poor fit]",–
Cc1ccc(C2Cn3nnc(C(=O)N4CCC(C(=O)NCC(C)c5ccccc5)CC4)c3CO2)cc1 (stereo unspecified),–,inactive: -5.7%
CCc1cc(C(=O)NNC(=S)NC2CCCCC2)cs1,"inconclusive: 39.8 µM [inhibitor, partial curve, poor fit]",–
Cc1ccc(C2=NC(C)(C)N=C2SCC(=O)Nc2ccc(F)c(Cl)c2)cc1,"inconclusive: 100 µM [inhibitor, partial curve, poor fit]",–
COc1ccc(NC(=S)NCc2cccs2)cc1,"inconclusive: 44.7 µM [inhibitor, partial curve, poor fit]",–
CC(C)(C)c1ccc(C(=O)Nc2sc3c(c2C(=O)O)CCC3)cc1,"inconclusive: 50.1 µM [inhibitor, partial curve, poor fit]",–
O=C(NCC1CC1)Nc1cccs1,"inconclusive: 50.1 µM [inhibitor, single point]",–

# Individual results from the entries so far.
# For Potency, `COc1ccc(NC(=S)NCc2cccs2)cc1` is entered as inconclusive: 44.7 µM [inhibitor, partial curve, poor fit]
# For activity change, negative = inhibition, `Cc1ccc(C2Cn3nnc(C(=O)N4CCC(C(=O)NCC(C)c5ccccc5)CC4)c3CO2)cc1` (stereo unspecified) is entered as inactive: -5.7%

# Next part:

Compound,Potency,"activity change, negative = inhibition"
Cc1ccc(C(O)CNC(=O)c2ccc3c(c2)NC(=O)CS3)cc1 (stereo unspecified),"inconclusive: 35.5 µM [inhibitor, partial curve, poor fit]",–
COc1ccccc1CN1CCc2c(n(CCOc3ccccc3)n(-c3ccccc3)c2=O)C1,"inconclusive: 25.1 µM [inhibitor, full curve]",–
Cc1noc(C)c1NC(=O)N(C)C[C@H]1Oc2ccc(NC(=O)Nc3ccc4c(c3)OCO4)cc2C(=O)N([C@H](C)CO)C[C@@H]1C,"inconclusive: 79.4 µM [inhibitor, partial curve, poor fit]",–
C[C@H](O)CC1=C[C@H](O)[C@@H](C)OC1=O,"inconclusive: 35.5 µM [inhibitor, partial curve, poor fit]",–
CCNc1nc(SC(C)C(=O)NC2CC2)nc2ccccc12 (stereo unspecified),"inconclusive: 112 µM [inhibitor, single point]",–
N#C/C(=C/c1ccccc1)C(=O)c1c[nH]c2cc(F)ccc12,–,inactive: -16.9%
COc1ccc(-c2cc(OC(=O)c3cccc(Cl)c3)c3c(C)oc(C)c3c(=O)c2)cc1,"inconclusive: 50.1 µM [inhibitor, partial curve, poor fit]",–
CC(C)C[C@@H](CNCC(=O)[C@H](Cc1c[nH]c2ccccc12)NC(=O)c1[nH]cnc1C(=O)N[C@@H](C)CN)NC(=O)c1nc[nH]c1C(=O)N[C@@H](C)C(=O)O,"inconclusive: 44.7 µM [inhibitor, partial curve, poor fit]",–
CCCOC(=O)C(=O)NNc1ccccc1,–,inactive: -29.4%
FC(F)Oc1ccc(NC(=S)NC23CC4CC(CC(C4)C2)C3)cc1,"inconclusive: 39.8 µM [inhibitor, partial curve, poor fit]",–
CCOC(=O)N1CCC(=NNc2ccnc3cc(Cl)ccc23)CC1,"inconclusive: 39.8 µM [inhibitor, partial curve, poor fit]",–
COc1cc([N+](=O)[O-])ccc1NC(=O)c1cccc(NC(=O)C(C)C)c1,–,inactive: 1.57%
CNC(=O)c1c(NC(=O)Cc2coc3ccc(C)cc23)sc2c1CCCC2,–,inactive: 2.51%
CCOc1cc(N2CCOCC2)c(OCC)cc1NC(=O)Cc1ccccc1,–,inactive: -5.49%
Cc1nnc2n(c1=O)N=C(c1ccc(Cl)cc1)CS2,"inconclusive: 89.1 µM [inhibitor, partial curve, poor fit]",–
CC(=O)c1ccccc1OCCOC(=O)c1ccc2c(c1)NC(=O)CS2,–,inactive: 14%
CCCc1nc(Cn2cnc3c2c(=O)n(C)c(=O)n3C)cs1,"inconclusive: 39.8 µM [inhibitor, partial curve, poor fit]",–
Cc1ccc(S(=O)(=O)N2CC(C(=O)NC3CCCCC3)C3(CCOCC3)C2)cc1 (stereo unspecified),"inconclusive: 8.91 µM [inhibitor, full curve, poor fit]",–
COc1ccc(-n2ncc3c(Nc4ccc(Cl)c(Cl)c4)ncnc32)cc1,"inconclusive: 39.8 µM [inhibitor, partial curve]",–
COCC(=O)OCC(=O)N1N=C(c2ccc(Cl)cc2)CC1c1ccco1 (stereo unspecified),–,inactive: -24.3%
CCC(C)c1ccc(NC(=O)Cn2cnc3c2c(=O)n(C)c(=O)n3C)cc1 (stereo unspecified),–,inactive: 2.43%
Sc1nnc(-c2ccc(Cl)cc2)n1Cc1ccccc1,–,inactive: 26.6%
